Legend:
[1] = mean population model parameter; cited from earlier work
[2] = bootstrap, for an individual of 75 kg

CC(C)c1c(C(=O)Nc2ccccc2)c(-c2ccccc2)c(-c2ccc(F)cc2)n1CC[C@@H](O)C[C@@H](O)CC(=O)O [atorvastatin]
ω^2 V1/F, Bootstrap mean [95%CI] (bootstrap 1000 replicates): 0.517 [0.218–0.822] | ω^2 V2/F, Bootstrap mean [95%CI] (bootstrap 1000 replicates): 0.110 [0.0655–0.172] | Cl2/F, Bootstrap mean [95%CI] [2]: 890 [668–1122] L/h | Cl/F, Bootstrap mean [95%CI] [2]: 617 [551–691] L/h | V1/F, Bootstrap mean [95%CI] [2]: 1709 [1253–2224] L | V2/F, Bootstrap mean [95%CI] [2]: 4229 [3573–4918] L | Between subject variability ω^2 Cl/f, Estimates (final model): 0.151 | Between subject variability ω^2 V1/F, Estimates (final model): 0.625 | Between subject variability ω^2 V2/F, Estimates (final model): 0.111 | Cl2/F, Estimates (for an individual of 75 kg): 873 L/h | Cl/F, Estimates (for an individual of 75 kg): 620 L/h | V1/F, Estimates (for an individual of 75 kg): 1843 L | V2/F, Estimates (for an individual of 75 kg): 4184 L | mean difference in drug absorption delay (T50) (placebo vs semaglutide co-administration): 67 min | Cl2/F [1]: 1880 L/h | Cl/F [1]: 504 L/h | V1/F [1]: 3250 L | V2/F [1]: 2170 L

From PMC9263537 (Pharmacology Research & Perspectives, 2022)
